Results from US8431583B2, “Use of purine derivatives for the manufacture of a medicament” (Centre National de la Recherche Scientifique, priority 2007, dated 2013).
For part of these data: At least one compound was matched to its structure with a doubt left. Some entries share one result that the patent states for a list of compounds.

Assays:
MUCK line = assay: Effect on polycystic kidney disease, MUCK line; format: cell-based; conditions: polycystic kidney disease model; relative to (R) roscovitine
[1] = system: B2 lymphocytes originating from patients; assay: Induction of cell death of B chronic lymphoid leukemia cells (B2 lymphocytes) from patients; format: cell-based, human; conditions: B CLL cells taken from patients; FIGS. 1 and 2; relative to roscovitine
Method: The B2 lymphocytes are lymphocytes involved in […] chronic lymphoid leukemia.
Cell viability is determined by the reduction of 3-(4,5-dimethylthiazol-2-yl)-5-(3-carboxymethoxyphenyl)-2-(4-sulfophenyl)-2H-tetrazolium (MTS).
Cell death is determined by the measurement of the level of the activity of the lactate dehydrogenase (LDH) released during lysis of the cells. The two processes are described in detail in “Ribas J. and Boix J. Cell differentiation, caspase inhibition, and macromolecular synthesis blockage, but not BCL-2 or BCL-XL proteins protect SH-SY5Y cells from apoptosis triggered by two CDK inhibitory drugs.
In table 2, the values shown are the mean inhibitory concentration IC50 values, expressed in μM.

B-CLL = B-CLL patients, fludarabine alone; cited from earlier work

SMILES: CC(C)n1cnc2c(NCc3ccc(-c4ccccn4)cc3)nc(NC(CO)CO)nc21 [Compound of formula Id, 2-(1,3-Dihydroxyprop-2-ylamino)-6-[4-(2-pyridyl)phenylmethylamino]-9-isopropylpurine]
- activity on MUCK line, times more active than roscovitine (MUCK line): 50 to 60 times

SMILES: CC(C)[C@H](CO)Nc1nc(NCc2ccc(-c3ccccn3)cc2)c2ncn(C(C)C)c2n1 [Compound of formula Ie]
- apoptosis-inducing activity on the CLL cells, times greater than roscovitine [1]: 50 to 100 times

SMILES: Nc1nc(F)nc2c1ncn2[C@@H]1O[C@H](CO)[C@@H](O)[C@@H]1O [Fludarabine, reference compound]
- complete hematologic remission (B-CLL): 7 to 40%
